Results as given in patent US20090162869A1 (RIKEN, published 2009).
Results are given in words; binding and its absence hold for the method and conditions named. Binding seen in cells or lysates may run through a third protein. Some results given as binding are weak or reduced against the parent protein; the word gives no strength.

Amino acid sequences for entries named in this document (tags omitted). Residues count along the entry.
UniProt P70206, residues 28-1894: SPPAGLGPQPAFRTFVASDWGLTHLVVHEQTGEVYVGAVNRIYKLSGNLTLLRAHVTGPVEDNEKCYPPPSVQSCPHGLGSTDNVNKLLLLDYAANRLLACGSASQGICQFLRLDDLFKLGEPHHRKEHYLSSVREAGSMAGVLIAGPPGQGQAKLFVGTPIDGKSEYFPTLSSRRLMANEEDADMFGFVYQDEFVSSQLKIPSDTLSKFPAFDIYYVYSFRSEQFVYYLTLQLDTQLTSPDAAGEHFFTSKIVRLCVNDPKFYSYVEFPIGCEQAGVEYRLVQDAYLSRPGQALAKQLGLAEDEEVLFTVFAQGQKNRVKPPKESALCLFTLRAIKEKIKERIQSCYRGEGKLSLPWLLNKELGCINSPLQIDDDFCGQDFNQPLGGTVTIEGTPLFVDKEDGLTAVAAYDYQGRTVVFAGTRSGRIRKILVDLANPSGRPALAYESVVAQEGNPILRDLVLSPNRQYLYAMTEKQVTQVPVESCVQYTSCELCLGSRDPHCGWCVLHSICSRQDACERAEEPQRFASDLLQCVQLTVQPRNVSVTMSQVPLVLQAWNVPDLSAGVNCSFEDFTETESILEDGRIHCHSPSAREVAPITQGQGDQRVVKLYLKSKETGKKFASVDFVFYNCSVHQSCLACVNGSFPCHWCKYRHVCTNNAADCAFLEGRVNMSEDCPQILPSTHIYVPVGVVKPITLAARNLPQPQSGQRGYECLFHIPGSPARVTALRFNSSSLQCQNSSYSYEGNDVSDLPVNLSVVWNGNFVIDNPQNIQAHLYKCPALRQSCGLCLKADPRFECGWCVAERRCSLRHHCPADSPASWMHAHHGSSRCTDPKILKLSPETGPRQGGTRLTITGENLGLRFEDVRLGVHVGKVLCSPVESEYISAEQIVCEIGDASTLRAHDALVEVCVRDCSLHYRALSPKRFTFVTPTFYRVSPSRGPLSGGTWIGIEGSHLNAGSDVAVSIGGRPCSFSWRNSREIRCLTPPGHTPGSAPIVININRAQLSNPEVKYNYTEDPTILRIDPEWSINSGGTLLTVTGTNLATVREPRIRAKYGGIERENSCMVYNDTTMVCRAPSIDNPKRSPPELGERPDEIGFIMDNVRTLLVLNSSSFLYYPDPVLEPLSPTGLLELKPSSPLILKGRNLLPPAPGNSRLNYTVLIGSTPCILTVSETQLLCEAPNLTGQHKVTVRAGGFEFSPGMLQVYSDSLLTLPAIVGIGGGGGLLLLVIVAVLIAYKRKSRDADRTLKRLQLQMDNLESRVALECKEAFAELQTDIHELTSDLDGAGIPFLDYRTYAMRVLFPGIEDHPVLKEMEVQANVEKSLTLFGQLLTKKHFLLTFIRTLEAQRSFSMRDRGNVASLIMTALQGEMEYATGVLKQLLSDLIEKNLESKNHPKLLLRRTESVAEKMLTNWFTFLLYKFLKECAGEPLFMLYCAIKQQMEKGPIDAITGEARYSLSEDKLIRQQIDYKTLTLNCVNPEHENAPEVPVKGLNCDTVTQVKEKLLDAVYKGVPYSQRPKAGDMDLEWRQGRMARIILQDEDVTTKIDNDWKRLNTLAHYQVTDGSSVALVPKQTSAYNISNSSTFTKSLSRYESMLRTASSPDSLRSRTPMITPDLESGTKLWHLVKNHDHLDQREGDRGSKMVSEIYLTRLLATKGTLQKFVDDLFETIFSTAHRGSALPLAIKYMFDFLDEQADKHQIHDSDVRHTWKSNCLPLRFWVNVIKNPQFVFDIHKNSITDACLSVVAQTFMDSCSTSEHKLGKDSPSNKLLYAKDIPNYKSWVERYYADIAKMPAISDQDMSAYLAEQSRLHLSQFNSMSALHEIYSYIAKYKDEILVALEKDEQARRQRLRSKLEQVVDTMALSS

Biological target: Plexin-A1, endogenous in mouse bone marrow cell-derived PDC (mouse) (UniProt P70206)
Test: restatement of the co-immunoprecipitation results of the earlier examples

B1: membrane molecule (A) of the present invention (PDC-TREM), mouse, full length (receptor)
chain: QNPELLRTQEGETVSVTCWYDSLYHSSEKIWCKQIDNLCYPFVSKSAEKPRFLIQQSSRFNFFTVTMTKLKMSDSGIYHCGIVANNTSVYLRNIHLVVSKGSSVVSTPDIIPATRLTKLPTLITTKHSPSDTTTTRSLPQPTTVVSSPDPRVIIINGTDADRGFVSSVTIPVVCGLLSKTLVFTVLFIVTQKSFGRQAMKAHNSNS
notes: also called the present membrane molecule
Question: B1 was tested. Which binding did it give?
Answer: binds
